Here are results for 28 targets from the supplement of paper PMC12819154, “High-throughput peptide-centric local stability assay extends protein–ligand identification to membrane proteins, tissues and bacteria” (Nature Structural & Molecular Biology, 2025).

Chains of the proteins cited; added tags and fusions are not shown. Lines headed by an entry give the natural chain unless they say otherwise; changes in a name come on top.
UniProt Q8IX21: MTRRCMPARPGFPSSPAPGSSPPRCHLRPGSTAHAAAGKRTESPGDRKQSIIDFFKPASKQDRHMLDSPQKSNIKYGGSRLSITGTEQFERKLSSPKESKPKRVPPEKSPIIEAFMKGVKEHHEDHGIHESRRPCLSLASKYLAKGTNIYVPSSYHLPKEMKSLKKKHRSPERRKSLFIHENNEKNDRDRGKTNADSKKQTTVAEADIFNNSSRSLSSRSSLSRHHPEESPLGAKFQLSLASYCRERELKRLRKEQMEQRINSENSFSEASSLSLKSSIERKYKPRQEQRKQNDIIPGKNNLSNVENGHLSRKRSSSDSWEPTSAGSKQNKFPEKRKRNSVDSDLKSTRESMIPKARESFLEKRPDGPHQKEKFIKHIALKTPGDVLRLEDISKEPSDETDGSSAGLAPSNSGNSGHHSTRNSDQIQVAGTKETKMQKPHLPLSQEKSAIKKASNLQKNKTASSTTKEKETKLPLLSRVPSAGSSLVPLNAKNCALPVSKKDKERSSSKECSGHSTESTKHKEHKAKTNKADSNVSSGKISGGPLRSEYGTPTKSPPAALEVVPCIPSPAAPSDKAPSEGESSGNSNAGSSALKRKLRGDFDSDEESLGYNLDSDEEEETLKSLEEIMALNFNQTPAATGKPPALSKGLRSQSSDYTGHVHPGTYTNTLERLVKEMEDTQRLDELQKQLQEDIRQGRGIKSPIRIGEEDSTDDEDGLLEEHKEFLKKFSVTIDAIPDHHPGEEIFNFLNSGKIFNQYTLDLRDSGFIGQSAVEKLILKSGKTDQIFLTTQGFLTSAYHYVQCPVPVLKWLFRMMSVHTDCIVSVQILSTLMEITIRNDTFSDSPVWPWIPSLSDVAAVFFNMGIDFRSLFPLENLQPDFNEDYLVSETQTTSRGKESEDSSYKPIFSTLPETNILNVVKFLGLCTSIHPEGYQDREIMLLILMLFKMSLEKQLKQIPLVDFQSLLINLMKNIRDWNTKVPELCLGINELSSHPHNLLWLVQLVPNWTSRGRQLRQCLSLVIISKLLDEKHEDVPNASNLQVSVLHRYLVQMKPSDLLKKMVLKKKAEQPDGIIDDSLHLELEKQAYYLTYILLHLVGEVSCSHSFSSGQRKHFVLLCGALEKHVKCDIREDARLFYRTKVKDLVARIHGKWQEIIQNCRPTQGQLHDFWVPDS
UniProt Q86VP6: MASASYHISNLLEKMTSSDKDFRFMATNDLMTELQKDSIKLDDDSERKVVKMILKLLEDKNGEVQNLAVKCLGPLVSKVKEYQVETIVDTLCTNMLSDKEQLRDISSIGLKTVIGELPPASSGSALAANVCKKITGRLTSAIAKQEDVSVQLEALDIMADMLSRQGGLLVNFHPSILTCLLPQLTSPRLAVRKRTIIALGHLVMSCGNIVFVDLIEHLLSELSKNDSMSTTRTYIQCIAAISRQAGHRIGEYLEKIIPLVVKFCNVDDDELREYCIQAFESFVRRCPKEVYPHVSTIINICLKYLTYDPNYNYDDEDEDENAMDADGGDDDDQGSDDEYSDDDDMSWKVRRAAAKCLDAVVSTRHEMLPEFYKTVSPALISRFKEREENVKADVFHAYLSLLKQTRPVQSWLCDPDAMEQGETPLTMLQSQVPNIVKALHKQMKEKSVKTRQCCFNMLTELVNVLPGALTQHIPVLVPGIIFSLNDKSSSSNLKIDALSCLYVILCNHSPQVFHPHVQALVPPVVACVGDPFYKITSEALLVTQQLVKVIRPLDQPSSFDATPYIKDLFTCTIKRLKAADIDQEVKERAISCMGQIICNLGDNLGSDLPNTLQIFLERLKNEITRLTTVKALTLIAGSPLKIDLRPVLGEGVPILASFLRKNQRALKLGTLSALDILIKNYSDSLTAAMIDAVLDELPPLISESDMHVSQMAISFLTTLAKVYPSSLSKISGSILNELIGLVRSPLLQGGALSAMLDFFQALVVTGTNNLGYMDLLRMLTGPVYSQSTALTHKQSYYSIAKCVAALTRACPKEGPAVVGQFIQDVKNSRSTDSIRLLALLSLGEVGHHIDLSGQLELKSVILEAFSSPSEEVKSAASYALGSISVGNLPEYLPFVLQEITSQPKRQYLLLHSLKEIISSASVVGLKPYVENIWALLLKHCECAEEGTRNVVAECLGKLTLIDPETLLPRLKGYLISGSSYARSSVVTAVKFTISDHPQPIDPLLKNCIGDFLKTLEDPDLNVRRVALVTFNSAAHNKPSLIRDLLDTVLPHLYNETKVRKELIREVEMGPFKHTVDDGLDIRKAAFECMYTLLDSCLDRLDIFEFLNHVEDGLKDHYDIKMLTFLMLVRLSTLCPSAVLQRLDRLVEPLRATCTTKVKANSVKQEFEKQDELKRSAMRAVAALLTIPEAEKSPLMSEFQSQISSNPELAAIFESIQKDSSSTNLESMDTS
UniProt Q86VP3, whole entry: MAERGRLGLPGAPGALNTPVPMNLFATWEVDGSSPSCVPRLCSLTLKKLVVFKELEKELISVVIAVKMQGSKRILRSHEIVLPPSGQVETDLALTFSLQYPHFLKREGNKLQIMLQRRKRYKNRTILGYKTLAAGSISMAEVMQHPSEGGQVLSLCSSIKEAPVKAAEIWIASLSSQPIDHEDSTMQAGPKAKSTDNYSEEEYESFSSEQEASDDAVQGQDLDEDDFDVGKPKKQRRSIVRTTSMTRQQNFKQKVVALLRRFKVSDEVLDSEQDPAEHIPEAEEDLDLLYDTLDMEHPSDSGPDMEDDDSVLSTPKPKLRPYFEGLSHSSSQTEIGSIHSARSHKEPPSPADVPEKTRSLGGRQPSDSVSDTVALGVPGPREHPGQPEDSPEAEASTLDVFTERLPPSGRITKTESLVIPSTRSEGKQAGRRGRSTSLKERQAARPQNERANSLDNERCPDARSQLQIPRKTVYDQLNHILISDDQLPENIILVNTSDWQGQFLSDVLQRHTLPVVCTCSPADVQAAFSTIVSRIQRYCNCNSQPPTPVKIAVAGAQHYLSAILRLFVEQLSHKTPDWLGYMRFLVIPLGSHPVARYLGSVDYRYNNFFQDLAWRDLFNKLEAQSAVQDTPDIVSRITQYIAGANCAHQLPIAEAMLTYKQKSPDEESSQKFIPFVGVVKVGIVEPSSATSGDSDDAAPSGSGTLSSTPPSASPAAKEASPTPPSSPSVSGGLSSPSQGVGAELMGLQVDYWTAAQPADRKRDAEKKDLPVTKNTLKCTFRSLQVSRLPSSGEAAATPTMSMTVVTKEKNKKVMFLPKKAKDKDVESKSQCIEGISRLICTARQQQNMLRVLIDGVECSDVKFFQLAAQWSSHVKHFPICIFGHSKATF
UniProt Q8IXW5, whole entry: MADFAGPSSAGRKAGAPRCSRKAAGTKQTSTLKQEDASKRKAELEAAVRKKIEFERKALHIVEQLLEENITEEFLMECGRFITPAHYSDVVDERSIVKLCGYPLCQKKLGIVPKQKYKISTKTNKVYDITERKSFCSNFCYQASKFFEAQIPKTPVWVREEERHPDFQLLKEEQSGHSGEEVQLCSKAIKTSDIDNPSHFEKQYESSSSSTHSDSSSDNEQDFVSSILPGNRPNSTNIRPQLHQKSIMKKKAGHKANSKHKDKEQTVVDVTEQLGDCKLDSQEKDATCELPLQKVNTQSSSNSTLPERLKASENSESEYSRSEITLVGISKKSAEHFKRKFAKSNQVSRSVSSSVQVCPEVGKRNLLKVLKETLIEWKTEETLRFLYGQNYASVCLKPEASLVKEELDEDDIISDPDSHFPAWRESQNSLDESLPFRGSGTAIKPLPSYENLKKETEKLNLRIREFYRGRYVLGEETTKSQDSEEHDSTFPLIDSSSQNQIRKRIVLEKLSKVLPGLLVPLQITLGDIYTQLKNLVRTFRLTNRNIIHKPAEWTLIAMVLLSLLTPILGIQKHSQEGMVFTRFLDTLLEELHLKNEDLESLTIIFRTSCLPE
UniProt Q8IYH5: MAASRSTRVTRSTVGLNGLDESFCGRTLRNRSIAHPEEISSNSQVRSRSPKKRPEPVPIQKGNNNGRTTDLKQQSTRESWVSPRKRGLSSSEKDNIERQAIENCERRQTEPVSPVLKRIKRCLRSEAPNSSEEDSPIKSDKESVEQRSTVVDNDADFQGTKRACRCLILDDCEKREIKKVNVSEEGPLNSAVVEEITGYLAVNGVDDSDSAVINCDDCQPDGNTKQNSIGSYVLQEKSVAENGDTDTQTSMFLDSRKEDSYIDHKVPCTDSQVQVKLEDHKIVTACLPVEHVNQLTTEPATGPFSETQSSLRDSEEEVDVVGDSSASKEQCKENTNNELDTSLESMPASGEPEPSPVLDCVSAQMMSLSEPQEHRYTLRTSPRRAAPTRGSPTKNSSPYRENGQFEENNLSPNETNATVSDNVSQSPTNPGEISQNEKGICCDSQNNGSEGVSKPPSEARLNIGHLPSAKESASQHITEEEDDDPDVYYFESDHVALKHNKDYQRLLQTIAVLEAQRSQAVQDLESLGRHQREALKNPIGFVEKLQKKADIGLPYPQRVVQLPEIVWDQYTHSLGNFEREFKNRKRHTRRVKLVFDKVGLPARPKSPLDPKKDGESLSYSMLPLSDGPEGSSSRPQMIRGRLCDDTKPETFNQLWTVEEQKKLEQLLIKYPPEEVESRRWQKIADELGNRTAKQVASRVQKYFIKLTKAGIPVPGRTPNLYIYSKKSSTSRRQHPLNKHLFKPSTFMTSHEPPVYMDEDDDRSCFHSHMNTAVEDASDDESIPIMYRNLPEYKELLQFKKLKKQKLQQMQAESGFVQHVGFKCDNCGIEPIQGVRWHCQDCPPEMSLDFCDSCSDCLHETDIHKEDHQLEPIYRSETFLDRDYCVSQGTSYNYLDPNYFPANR
UniProt Q86WP2: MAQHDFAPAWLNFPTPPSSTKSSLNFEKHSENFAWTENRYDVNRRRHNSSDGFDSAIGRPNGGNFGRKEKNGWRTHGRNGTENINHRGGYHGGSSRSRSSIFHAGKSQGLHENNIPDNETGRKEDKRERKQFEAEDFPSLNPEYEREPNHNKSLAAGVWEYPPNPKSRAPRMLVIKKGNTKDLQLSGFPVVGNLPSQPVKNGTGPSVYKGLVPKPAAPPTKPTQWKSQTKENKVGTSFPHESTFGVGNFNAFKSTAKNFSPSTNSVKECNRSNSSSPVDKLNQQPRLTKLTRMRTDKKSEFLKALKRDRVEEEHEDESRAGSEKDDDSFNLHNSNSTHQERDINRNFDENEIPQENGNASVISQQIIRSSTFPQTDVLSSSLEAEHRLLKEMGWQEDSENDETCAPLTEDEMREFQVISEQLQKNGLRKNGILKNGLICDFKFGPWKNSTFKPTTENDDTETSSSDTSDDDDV
UniProt Q86YD1: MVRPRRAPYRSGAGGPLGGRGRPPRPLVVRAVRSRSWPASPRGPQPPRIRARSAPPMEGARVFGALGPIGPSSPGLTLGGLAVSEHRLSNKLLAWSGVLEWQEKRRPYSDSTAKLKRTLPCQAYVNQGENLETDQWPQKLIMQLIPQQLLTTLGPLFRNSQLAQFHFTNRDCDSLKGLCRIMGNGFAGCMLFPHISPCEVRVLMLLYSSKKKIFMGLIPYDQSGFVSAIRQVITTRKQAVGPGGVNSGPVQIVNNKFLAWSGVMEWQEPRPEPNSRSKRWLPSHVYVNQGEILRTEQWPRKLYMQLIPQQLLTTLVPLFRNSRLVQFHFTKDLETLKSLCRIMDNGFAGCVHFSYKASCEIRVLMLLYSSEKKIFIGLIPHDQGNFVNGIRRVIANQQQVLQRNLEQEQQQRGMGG
UniProt Q86Y82: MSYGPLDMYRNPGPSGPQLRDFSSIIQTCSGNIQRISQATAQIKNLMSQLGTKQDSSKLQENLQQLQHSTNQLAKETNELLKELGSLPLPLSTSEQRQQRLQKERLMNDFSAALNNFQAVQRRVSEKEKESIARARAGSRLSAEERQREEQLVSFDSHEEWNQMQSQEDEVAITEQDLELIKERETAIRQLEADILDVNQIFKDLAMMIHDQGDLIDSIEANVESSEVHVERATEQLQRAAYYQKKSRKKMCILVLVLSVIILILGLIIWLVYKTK
UniProt Q8IZ13: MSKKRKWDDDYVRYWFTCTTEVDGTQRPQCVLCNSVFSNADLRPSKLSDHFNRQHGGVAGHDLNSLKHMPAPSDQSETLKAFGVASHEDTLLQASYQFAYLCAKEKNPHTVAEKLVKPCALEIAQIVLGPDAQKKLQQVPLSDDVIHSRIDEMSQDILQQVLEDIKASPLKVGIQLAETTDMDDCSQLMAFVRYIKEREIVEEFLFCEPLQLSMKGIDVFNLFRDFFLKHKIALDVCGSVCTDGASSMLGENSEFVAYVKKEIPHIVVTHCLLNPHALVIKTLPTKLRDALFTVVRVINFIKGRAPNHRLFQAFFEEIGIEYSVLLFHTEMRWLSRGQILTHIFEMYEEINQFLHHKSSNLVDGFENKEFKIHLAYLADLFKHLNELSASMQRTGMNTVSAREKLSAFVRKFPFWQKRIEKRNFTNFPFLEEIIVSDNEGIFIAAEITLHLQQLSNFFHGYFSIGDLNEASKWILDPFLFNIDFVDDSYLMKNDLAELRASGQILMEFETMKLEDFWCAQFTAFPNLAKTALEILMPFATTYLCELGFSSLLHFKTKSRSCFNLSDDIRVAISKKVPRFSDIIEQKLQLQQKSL

The list shows a part of the results. Small differences around the control level are noise.

Compound in the assay: Cc1nc(Nc2ncc(C(=O)Nc3c(C)cccc3Cl)s2)cc(N2CCN(CCO)CC2)n1 [dasatinib]
In words: log2 fold change of tryptic peptide abundance, ligand vs vehicle (limited proteolysis) (log2 ratio); higher = more trypsin-susceptible (destabilized). To be noted: ligand concentration: 5 uM; sample: K562 cleared lysate.
Turning to “TRMT2A (peptide sequence: HNKACCPLEGVRPSPQQTEYR, peptide start residue: 220) (UniProt Q8IZ69)”, the log2 fold change was -0.34. Take “UniProt Q8IX21 (peptide sequence: QSIIDFFKPASK, peptide start residue: 49)”: the log2 fold change was -0.27. As for “AMN1 (peptide sequence: EVLEQLVGPNK, peptide start residue: 239) (UniProt Q8IY45)”, the log2 fold change was 0.167. To “ZC3HC1 (peptide sequence: SMGTGDTPGLEVPSSPLRK, peptide start residue: 381) (UniProt Q86WB0)” belongs -0.253; to “UniProt Q8IVL6 (peptide sequence: FEGLTVLK, peptide start residue: 510)”, 0.0956. With “CAND1 (peptide sequence: RVALVTFNSAAHNKPSLIR, peptide start residue: 1024) (UniProt Q86VP6)” the figure was -0.532.

Regarding “UniProt Q8IYT2 (peptide sequence: DCAIQYFMQK, peptide start residue: 398)”, the log2 fold change is 0.214.

As to “SMYD4 (peptide sequence: TLNYGLGESEK, peptide start residue: 390) (UniProt Q8IYR2)”, the log2 fold change stood at 0.274. To “PACS2 (peptide sequence: TESLVIPSTR, peptide start residue: 414) (UniProt Q86VP3)” belongs -0.301; to “RPAP2 (peptide sequence: ETEKLNLR, peptide start residue: 455) (UniProt Q8IXW5)”, -0.714. With “ZZZ3 (peptide sequence: SIAHPEEISSNSQVR, peptide start residue: 32) (UniProt Q8IYH5)” the figure was 0.196; with “GPBP1 (peptide sequence: SQGLHENNIPDNETGR, peptide start residue: 107) (UniProt Q86WP2)”, 0.325. With “ASXL1 (peptide sequence: DALQWSR, peptide start residue: 86) (UniProt Q8IXJ9)” the figure was -0.497; with “PTOV1 (peptide sequence: VIANQQQVLQR, peptide start residue: 393) (UniProt Q86YD1)”, -0.0793. With “ZGRF1 (peptide sequence: SKAQILALLK, peptide start residue: 251) (UniProt Q86YA3)”, the log2 fold change was -0.751. To “ARHGAP12 (peptide sequence: AFYVPAQYVK, peptide start residue: 61) (UniProt Q8IWW6)” belongs 0.275; to “ZNF280B (peptide sequence: TDILSLTSQNK, peptide start residue: 262) (UniProt Q86YH2)”, -0.231; to “MRPL41 (peptide sequence: GIGFLTSGWR, peptide start residue: 40) (UniProt Q8IXM3)”, -0.097. As for “ZNF440 (peptide sequence: THTGEKPYEYQECGK, peptide start residue: 249) (UniProt Q8IYI8)”, the log2 fold change was 0.257. With “CEP57L1 (peptide sequence: DISIQLSSAQSR, peptide start residue: 114) (UniProt Q8IYX8)” the figure was 0.555; with “YAF2 (peptide sequence: RQPKPSSDEGYWDCSVCTFR, peptide start residue: 12) (UniProt Q8IY57)”, 0.465; with “STX12 (peptide sequence: NPGPSGPQLR, peptide start residue: 11) (UniProt Q86Y82)”, 0.185. With “ERC1 (peptide sequence: AAGLQAEIGQVK, peptide start residue: 461) (UniProt Q8IUD2)” the figure was 0.382; with “ZBED8 (peptide sequence: EKNPHTVAEK, peptide start residue: 105) (UniProt Q8IZ13)”, 0.0942; with “UniProt Q8IVP9 (peptide sequence: VHTGERPYECNECGK, peptide start residue: 471)”, 0.0161. To “MDP1 (peptide sequence: LQSLGVPGAAASR, peptide start residue: 58) (UniProt Q86V88)” belongs 0.0434. With “RCOR2 (peptide sequence: DFGAIAEVIGNK, peptide start residue: 350) (UniProt Q8IZ40)”, the log2 fold change turned out to be 0.512.

As to “UniProt Q86Y56 (peptide sequence: CSLLDPFAAVRR, peptide start residue: 173)”, the log2 fold change amounted to 0.158.
